The test system of this test is HEK293A TEAD-LUC reporter. Description: TEAD-luciferase reporter activity (YAP activation), robust Z score vs plate; higher = stronger YAP/TEAD activation. The settings on record: 24 h.

Structures are written as SMILES. The list shows a part of the results. Single values are uncertain here, since repeats match poorly.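 Human kidney-derived cells stably carry a construct in which eight TEAD-binding elements drive luciferase, measured by luminescence in a drug-repurposing library screen. A hit is any compound whose signal exceeds the plate mean by more than five robust Z scores.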

As for `CC1(C)Oc2ccc(C#N)cc2[C@@H](N(Cc2ncc[nH]2)c2ccc(Cl)cc2)[C@@H]1O`, the TEAD-luciferase reporter activity runs as follows: (compound concentration: 200 nM) inactive: 0.569; (compound concentration: 2 uM) inactive: -0.824; (compound concentration: 10 uM) inactive: -0.139.

On to `COc1c(C)c2c(c(O)c1CC=C(C)CCC(=O)OCCN1CCOCC1)C(=O)OC2` [mycophenolate mofetil], for which the TEAD-luciferase reporter activity was inactive: -0.333 (compound concentration: 200 nM), inactive: 2.22 (compound concentration: 2 uM) and inactive: 1.1 (compound concentration: 10 uM).

Turning to `Cc1cnc(NCC(F)(F)c2ccccc2)c(=O)n1CC(=O)NCCONC(=N)N`, the TEAD-luciferase reporter activity reads like this: (compound concentration: 200 nM) inactive: -0.444; (compound concentration: 2 uM) inactive: -0.492; (compound concentration: 10 uM) inactive: -1.43.

For `Cc1c(C)c2c(c(C)c1O)CCC(C)(CN1CCN(c3cc(N4CCCC4)nc(N4CCCC4)n3)CC1)O2` (stereo not drawn), the TEAD-luciferase reporter activity is inactive: -0.472 (compound concentration: 200 nM), inactive: 1.11 (compound concentration: 2 uM) and inactive: -1.94 (compound concentration: 10 uM).

`CC(C)(C)c1cc(CN2CCN(CC(O)c3ccc(Cl)cc3)CC2)cc(C(C)(C)C)c1O` (stereo not drawn): the TEAD-luciferase reporter activity runs as follows: (compound concentration: 200 nM) inactive: -2.6; (compound concentration: 2 uM) inactive: -1.64; (compound concentration: 10 uM) inactive: 1.91.

With `CCOC(=O)c1c(C)nc(C)c(C(=O)OC)c1-c1cccc(Cl)c1Cl`, the TEAD-luciferase reporter activity (compound concentration: 200 nM) was inactive: 0.29, the TEAD-luciferase reporter activity (compound concentration: 2 uM) is inactive: -3.22 and the TEAD-luciferase reporter activity (compound concentration: 10 uM) was inactive: -1.63.

Turning to `CO[C@H]1C[C@H](O[C@H]2[C@H](C)[C@@H](O[C@@H]3O[C@H](C)C[C@H](N(C)C)[C@H]3OC(C)=O)[C@@H](C)C[C@@]3(CO3)C(=O)[C@H](C)[C@@H](OC(C)=O)[C@@H](C)[C@@H](C)OC(=O)[C@@H]2C)O[C@@H](C)[C@@H]1OC(C)=O` [troleandomycin], the TEAD-luciferase reporter activity (compound concentration: 2 uM) was inactive: -1.05.

As to `CO[C@H]1C[C@H](O[C@H]2[C@H](C)[C@@H](O[C@@H]3O[C@H](C)C[C@H](N(C)C)[C@H]3OC(C)=O)[C@@H](C)C[C@@]3(CO3)C(=O)[C@H](C)[C@@H](OC(C)=O)[C@@H](C)[C@@H](C)OC(=O)[C@@H]2C)O[C@@H](C)[C@@H]1OC(C)=O` [troleandomycin, Elan], the TEAD-luciferase reporter activity runs as follows: (compound concentration: 200 nM) inactive: -1.44; (compound concentration: 10 uM) inactive: -1.14.

As to `CC(C)(C)N/C(=N\C#N)Nc1cccc(/C(=C\CCCC(=O)O)c2cccnc2)c1`, the TEAD-luciferase reporter activity is, setting by setting: (compound concentration: 200 nM) inactive: 0.304; (compound concentration: 2 uM) inactive: -0.554; (compound concentration: 10 uM) inactive: -0.201.

On to `COc1ccc2nc(=O)[nH]c(C)c2c1OC`, for which the TEAD-luciferase reporter activity runs as follows: (compound concentration: 200 nM) inactive: -0.473; (compound concentration: 2 uM) inactive: -0.132; (compound concentration: 10 uM) inactive: -0.0698.

For `CC/C(=C\C(=N/O)C(N)=O)C(C)[N+](=O)[O-]` (stereo not drawn), the TEAD-luciferase reporter activity (compound concentration: 200 nM) was inactive: 3.37, the TEAD-luciferase reporter activity (compound concentration: 2 uM) is inactive: -0.85 and the TEAD-luciferase reporter activity (compound concentration: 10 uM) was inactive: 1.94.

Take `CCCCN(CC)c1nc(C)nc2c1c(C)cn2-c1c(C)cc(C)cc1C`: the TEAD-luciferase reporter activity by setting is: (compound concentration: 200 nM) inactive: 4.15; (compound concentration: 2 uM) inactive: -1.31; (compound concentration: 10 uM) inactive: 0.224.

Consider `CC[C@H](C)[C@H](NC(=O)[C@@H]1CCCN1C(=O)[C@@H](NC(=O)[C@@H](N)Cc1ccccc1)C(C)C)C(=O)N[C@@H](Cc1ccccc1)C(=O)N[C@H](C(=O)N[C@@H](Cc1ccc(O)cc1)C(=O)NCC(=O)N[C@@H](CCC(=O)O)C(=O)N[C@@H](CC(C)C)C(=O)N[C@@H](CCC(N)=O)C(=O)N[C@@H](CCCNC(=N)N)C(=O)N[C@@H](CC(C)C)C(=O)N[C@@H](CCC(N)=O)C(=O)N[C@@H](CCC(=O)O)C(=O)N[C@@H](CCCCN)C(=O)N[C@@H](CCC(=O)O)C(=O)N[C@@H](CCCNC(=N)N)C(=O)N[C@@H](CC(N)=O)C(=O)N[C@@H](CCCCN)C(=O)NCC(=O)N[C@@H](CCC(N)=O)C(=O)O)[C@@H](C)O` [[Leu13]-Motilin], for which the TEAD-luciferase reporter activity (compound concentration: 200 nM) was inactive: 4.7, the TEAD-luciferase reporter activity (compound concentration: 2 uM) is inactive: 1.33 and the TEAD-luciferase reporter activity (compound concentration: 10 uM) is inactive: -0.633.

`CC[C@H](C)[C@@H]1C(=O)N[C@H](C2Cc3ccccc3C2)C(=O)N1[C@@H](C(=O)N1CCOCC1)c1ccc(C)nc1C` [epelsiban]: the TEAD-luciferase reporter activity reads like this: (compound concentration: 200 nM) inactive: -0.758; (compound concentration: 2 uM) inactive: -1.33; (compound concentration: 10 uM) inactive: 4.14.

Turning to `COc1c2c(nc3ccccc13)CN(CCC1CCN(Cc3ccccc3)CC1)C2=O`, the TEAD-luciferase reporter activity is inactive: -0.218 (compound concentration: 200 nM), inactive: 0.669 (compound concentration: 2 uM) and inactive: 0.941 (compound concentration: 10 uM).

Regarding `CC(C)CCCCC(=O)NC(CCN)C(=O)NC(C(=O)NC(CCN)C(=O)NC1CCNC(=O)C(C(C)O)NC(=O)C(CCN)NC(=O)C(CCN)NC(=O)C(CC(C)C)NC(=O)C(CC(C)C)NC(=O)C(CCN)NC1=O)C(C)O` (stereo not drawn) [colistin methanesulfonate sodium (CMS)], the TEAD-luciferase reporter activity (compound concentration: 2 uM) is inactive: -0.453.

With `CC(C)CCCCC(=O)NC(CCN)C(=O)NC(C(=O)NC(CCN)C(=O)NC1CCNC(=O)C(C(C)O)NC(=O)C(CCN)NC(=O)C(CCN)NC(=O)C(CC(C)C)NC(=O)C(CC(C)C)NC(=O)C(CCN)NC1=O)C(C)O` (stereo not drawn) [Polymyxin E2], the TEAD-luciferase reporter activity by setting is: (compound concentration: 200 nM) inactive: -0.804; (compound concentration: 10 uM) inactive: 2.65.

With `CCC(C)N(C)C(=O)c1cc2ccccc2c(-c2ccccc2Cl)n1` (stereo not drawn), the TEAD-luciferase reporter activity reads like this: (compound concentration: 200 nM) inactive: 0.114; (compound concentration: 2 uM) inactive: 1.5; (compound concentration: 10 uM) inactive: -2.38.

`CC1(C)O[C@@H]2C[C@H]3[C@@H]4C[C@H](F)C5=CC(=O)CC[C@]5(C)[C@H]4[C@@H](O)C[C@]3(C)[C@]2(C(=O)CO)O1` [Flurandrenolide]: the TEAD-luciferase reporter activity (compound concentration: 200 nM) is inactive: 1.38, the TEAD-luciferase reporter activity (compound concentration: 2 uM) was inactive: 0.284 and the TEAD-luciferase reporter activity (compound concentration: 10 uM) was inactive: -0.411.

On to `O=C(NCCOC(=O)c1ccccc1Nc1ccnc2cc(Cl)ccc12)c1cccnc1`, for which the TEAD-luciferase reporter activity runs as follows: (compound concentration: 200 nM) inactive: -1.86; (compound concentration: 2 uM) inactive: -0.551; (compound concentration: 10 uM) inactive: -0.0256.

With `CC(C)n1c(=O)nc(-c2ccccc2)c2cc3c(cc21)OCO3`, the TEAD-luciferase reporter activity is inactive: 0.841 (compound concentration: 200 nM), inactive: -0.497 (compound concentration: 2 uM) and inactive: 0.629 (compound concentration: 10 uM).

For the molecule `Cc1cc(OCCCS(C)(=O)=O)cc(C)c1-c1cccc(COc2ccc3c(c2)OC[C@H]3CC(=O)O)c1`, the TEAD-luciferase reporter activity runs as follows: (compound concentration: 200 nM) inactive: -0.31; (compound concentration: 10 uM) inactive: 0.21.

On to `Cc1cc(OCCCS(C)(=O)=O)cc(C)c1-c1cccc(COc2ccc3c(c2)OC[C@H]3CC(=O)O)c1` [fasiglifam], for which the TEAD-luciferase reporter activity (compound concentration: 2 uM) was inactive: -0.159.

In the case of `CC(C)=CCOc1cc(NC(=O)c2ccccc2)ccc1Cl`, the TEAD-luciferase reporter activity was inactive: -0.0679 (compound concentration: 200 nM), inactive: 0.015 (compound concentration: 2 uM) and inactive: 0.239 (compound concentration: 10 uM).

Values taken from the supplement of paper PMC10735217.
